Results are given in words; binding and its absence hold for the method and conditions named. In cells and extracts the contact can be indirect. These calls come from enrichment with a bait or labelling near it, and not all partners need be listed.

Sequences of proteins named here, by UniProt entry; tags and fusion partners are left off.
UniProt P08670: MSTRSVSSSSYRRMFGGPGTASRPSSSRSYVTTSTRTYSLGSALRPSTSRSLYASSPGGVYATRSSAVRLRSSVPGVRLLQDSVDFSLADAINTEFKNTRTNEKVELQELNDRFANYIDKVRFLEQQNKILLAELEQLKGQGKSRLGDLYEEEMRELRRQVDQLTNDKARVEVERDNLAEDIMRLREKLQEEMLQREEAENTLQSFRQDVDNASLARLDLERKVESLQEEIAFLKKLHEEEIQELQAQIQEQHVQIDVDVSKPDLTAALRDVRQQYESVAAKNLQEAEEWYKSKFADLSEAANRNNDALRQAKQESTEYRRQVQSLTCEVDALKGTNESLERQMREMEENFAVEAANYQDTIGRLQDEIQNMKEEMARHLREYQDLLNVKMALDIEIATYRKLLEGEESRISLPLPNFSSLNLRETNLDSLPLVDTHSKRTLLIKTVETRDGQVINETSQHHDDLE

For the assay, the target named is T1, XRCC2 (human (endogenous in A549)) (UniProt O43543).
T1 sequence: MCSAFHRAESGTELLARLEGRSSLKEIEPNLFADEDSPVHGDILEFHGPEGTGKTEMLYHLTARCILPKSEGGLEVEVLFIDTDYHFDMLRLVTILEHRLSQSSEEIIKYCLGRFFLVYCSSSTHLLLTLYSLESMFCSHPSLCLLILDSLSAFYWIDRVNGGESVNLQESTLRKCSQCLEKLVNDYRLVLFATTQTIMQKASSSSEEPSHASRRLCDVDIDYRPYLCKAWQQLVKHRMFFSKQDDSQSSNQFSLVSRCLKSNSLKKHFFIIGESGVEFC
In words: affinity purification with mass spectrometry; tandem affinity purification / IP capturing XRCC2 interacting proteins, gel with silver nitrate staining, differential bands cut out, LC-MS/MS.

Regarding vimentin (from UniProt P08670 1-466), the binding result was “binds”.

The record behind these values is paper PMC11294482.
